Test [1] addresses T1, Fsd2 (Fibronectin Type III and SPRY Domain Containing 2) (mouse (endogenous in mouse muscle and heart)) (UniProt Q8BZ52).
T1 sequence: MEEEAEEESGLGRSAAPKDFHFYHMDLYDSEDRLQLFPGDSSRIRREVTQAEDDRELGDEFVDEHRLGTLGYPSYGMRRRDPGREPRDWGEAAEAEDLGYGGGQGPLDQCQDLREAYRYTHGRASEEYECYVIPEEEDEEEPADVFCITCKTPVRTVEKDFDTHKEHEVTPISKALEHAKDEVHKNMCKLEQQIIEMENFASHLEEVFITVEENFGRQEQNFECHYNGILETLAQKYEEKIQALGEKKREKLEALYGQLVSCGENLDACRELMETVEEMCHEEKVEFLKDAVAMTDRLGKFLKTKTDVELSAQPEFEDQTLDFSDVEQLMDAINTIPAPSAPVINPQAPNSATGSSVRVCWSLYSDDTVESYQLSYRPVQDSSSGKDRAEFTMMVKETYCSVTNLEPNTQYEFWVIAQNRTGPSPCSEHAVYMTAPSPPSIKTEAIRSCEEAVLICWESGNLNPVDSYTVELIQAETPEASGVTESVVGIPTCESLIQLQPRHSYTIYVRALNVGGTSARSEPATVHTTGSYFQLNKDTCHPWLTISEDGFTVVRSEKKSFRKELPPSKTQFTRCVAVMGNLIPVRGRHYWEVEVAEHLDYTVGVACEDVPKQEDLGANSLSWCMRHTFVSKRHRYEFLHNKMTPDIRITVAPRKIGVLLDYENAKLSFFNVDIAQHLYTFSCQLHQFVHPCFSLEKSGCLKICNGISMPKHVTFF
As to the kind of experiment: affinity purification with mass spectrometry; Fsd2 antibody IP from skeletal muscle of control mice; specific: 20x over IgG and P < 0.01.

Amino acid sequences for entries named in this document (tags omitted).
UniProt Q62407: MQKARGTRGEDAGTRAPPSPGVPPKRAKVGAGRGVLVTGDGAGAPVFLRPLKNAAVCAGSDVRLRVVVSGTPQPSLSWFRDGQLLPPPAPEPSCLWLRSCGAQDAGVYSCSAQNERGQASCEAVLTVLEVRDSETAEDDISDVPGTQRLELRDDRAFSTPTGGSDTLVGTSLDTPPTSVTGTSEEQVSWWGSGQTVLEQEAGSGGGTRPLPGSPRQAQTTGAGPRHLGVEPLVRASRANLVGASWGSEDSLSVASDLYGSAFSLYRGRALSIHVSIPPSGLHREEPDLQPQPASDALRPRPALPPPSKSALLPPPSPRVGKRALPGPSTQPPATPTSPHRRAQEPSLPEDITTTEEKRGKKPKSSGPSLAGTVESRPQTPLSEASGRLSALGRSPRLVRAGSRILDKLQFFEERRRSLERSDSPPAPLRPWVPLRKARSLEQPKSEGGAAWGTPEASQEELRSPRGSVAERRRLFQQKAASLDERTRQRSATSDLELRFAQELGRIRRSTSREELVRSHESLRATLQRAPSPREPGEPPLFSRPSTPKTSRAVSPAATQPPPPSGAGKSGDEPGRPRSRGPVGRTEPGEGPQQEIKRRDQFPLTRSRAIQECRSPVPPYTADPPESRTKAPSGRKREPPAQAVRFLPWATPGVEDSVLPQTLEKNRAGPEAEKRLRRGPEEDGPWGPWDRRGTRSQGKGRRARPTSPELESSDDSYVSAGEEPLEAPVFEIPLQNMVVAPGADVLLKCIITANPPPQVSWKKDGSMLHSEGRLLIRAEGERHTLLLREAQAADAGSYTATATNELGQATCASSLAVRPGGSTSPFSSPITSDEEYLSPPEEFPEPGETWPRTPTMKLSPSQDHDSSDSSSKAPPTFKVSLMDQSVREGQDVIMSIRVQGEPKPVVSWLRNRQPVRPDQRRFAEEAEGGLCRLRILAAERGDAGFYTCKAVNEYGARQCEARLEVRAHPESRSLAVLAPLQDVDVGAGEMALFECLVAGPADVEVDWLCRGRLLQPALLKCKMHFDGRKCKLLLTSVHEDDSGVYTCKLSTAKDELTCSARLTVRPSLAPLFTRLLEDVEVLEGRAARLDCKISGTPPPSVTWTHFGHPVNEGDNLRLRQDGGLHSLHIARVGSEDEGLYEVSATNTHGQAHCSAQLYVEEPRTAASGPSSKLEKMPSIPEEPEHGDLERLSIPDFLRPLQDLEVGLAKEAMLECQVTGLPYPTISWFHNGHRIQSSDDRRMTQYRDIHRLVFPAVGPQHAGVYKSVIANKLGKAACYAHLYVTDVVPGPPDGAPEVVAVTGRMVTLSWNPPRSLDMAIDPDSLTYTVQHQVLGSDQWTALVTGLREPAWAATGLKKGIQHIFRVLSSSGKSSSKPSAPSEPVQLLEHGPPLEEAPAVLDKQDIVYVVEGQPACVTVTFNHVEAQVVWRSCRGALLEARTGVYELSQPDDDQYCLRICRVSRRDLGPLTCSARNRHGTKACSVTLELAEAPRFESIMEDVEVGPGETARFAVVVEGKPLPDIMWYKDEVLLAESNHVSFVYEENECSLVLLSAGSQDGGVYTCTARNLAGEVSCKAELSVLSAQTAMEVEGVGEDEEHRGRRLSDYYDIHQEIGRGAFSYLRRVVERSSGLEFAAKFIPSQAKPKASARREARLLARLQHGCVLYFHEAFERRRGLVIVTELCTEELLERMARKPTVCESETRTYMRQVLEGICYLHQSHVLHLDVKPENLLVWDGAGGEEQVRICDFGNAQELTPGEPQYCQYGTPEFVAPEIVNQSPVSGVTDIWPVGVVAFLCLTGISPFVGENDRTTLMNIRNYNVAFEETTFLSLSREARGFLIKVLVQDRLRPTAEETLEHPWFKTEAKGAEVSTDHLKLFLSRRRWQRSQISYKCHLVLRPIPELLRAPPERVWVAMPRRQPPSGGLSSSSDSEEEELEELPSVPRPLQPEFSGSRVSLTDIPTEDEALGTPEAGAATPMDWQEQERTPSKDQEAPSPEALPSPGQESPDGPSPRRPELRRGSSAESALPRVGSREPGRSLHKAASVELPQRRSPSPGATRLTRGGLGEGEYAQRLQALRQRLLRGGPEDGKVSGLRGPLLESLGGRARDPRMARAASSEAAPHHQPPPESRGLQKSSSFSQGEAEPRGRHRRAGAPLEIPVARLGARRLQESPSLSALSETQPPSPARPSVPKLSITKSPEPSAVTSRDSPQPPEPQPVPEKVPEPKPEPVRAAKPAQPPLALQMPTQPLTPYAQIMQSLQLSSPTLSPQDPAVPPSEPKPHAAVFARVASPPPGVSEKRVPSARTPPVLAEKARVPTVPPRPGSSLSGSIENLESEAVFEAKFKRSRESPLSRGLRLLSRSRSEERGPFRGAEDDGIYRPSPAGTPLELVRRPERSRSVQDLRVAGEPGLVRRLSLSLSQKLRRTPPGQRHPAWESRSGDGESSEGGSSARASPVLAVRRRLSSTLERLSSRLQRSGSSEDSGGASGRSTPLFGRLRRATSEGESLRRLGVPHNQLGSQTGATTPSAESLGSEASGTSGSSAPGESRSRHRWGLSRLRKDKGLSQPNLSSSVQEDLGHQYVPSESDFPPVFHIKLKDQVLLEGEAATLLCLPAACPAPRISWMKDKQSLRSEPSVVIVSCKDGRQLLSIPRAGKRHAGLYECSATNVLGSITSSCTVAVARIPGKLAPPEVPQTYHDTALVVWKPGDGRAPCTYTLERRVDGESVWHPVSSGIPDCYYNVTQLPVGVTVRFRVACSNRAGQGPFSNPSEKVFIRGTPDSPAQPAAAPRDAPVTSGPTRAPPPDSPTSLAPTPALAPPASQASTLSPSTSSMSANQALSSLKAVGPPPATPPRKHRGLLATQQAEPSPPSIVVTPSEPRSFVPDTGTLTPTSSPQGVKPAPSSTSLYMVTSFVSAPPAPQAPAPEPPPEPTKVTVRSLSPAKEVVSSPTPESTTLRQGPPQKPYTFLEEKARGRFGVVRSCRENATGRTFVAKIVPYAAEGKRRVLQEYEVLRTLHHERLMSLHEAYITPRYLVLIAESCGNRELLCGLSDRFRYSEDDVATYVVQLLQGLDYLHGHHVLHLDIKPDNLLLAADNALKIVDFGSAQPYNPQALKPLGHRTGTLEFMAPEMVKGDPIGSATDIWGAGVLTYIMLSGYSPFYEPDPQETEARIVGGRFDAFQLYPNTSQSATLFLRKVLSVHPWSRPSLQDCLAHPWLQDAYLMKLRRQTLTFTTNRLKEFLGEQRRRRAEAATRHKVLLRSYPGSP
UniProt Q9ET78: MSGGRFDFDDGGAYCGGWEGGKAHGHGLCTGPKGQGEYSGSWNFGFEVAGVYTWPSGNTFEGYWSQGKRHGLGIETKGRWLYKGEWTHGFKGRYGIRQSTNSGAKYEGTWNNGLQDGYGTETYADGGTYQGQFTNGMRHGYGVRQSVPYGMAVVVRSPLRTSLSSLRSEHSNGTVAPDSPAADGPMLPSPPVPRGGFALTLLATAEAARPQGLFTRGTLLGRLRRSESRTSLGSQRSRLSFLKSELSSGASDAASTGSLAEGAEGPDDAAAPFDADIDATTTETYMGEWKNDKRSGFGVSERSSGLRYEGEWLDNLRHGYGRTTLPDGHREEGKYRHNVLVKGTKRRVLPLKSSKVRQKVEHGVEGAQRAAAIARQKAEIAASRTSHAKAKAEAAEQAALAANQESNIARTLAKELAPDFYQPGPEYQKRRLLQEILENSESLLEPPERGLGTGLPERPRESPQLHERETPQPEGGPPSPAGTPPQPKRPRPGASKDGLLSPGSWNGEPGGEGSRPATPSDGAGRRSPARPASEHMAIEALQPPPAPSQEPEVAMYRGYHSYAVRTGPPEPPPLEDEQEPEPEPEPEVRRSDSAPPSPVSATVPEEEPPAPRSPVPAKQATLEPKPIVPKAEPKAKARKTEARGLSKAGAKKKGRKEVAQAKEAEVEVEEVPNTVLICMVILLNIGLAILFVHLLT

Test [2] addresses HA-Spegβ (V5/HA-tagged striated muscle preferentially expressed protein kinase β) (mouse (endogenous knock-in in HA-Speg mice)) (UniProt Q62407). The test can be described thus: affinity purification with mass spectrometry; HA antibody IP from gastrocnemius muscle of HA-Speg mice; HA antibody pulldowns from WT muscle define nonspecific; >10x purification, Holm-Sidak test and/or FDR; IP buffer 50 mM Tris-HCl pH 7.4, 170 mM NaCl, 1 mM EDTA, 1% NP-40.

For test [3] the target is unchanged. As to the kind of experiment: affinity purification with mass spectrometry; HA antibody IP from hearts of HA-Speg mice.
Test [4] concerns the target RyR1 (ryanodine receptor 1, skeletal muscle Ca2+ release channel) (mouse (endogenous in mouse skeletal muscle)) (UniProt E9PZQ0). The test can be described thus: affinity purification with mass spectrometry; RyR1 antibody IP from gastrocnemius muscle of control (Speg fl/fl) mice, also of Speg-KO and HA-Speg mice; specific: 20x over IgG and P < 0.01.
The target of test [5] is Jph2 (junctophilin 2) (mouse (endogenous in mouse muscle and heart)) (UniProt Q9ET78). The test can be described thus: affinity purification with mass spectrometry; Jph2 antibody IP from hearts of control mice; specific: P < 0.01 and 100x over IgG.
Test [6] concerns the target RyR2 (ryanodine receptor 2, cardiac Ca2+ release channel) (mouse (endogenous in mouse heart)) (UniProt E9Q401). As to the kind of experiment: affinity purification with mass spectrometry; RyR2 IP from hearts of control (Speg fl/fl) mice.

6 molecules from publication PMC10502019 can be followed below.

Results are given in words; binding and its absence hold for the method and conditions named. Binding seen in cells or lysates may run through a third protein. Here binding means that the protein was enriched with, or labelled near, the bait; the list need not be complete.

B1: Esd (Esterase D, a serine hydrolase) (enzyme, UniProt Q9R0P3 1-282)
chain: MALKQISSNRCFGGLQKVFEHSSVELKCKMRFAVYLPPQAESGKCPALYWLSGLTCTEQNFISKSGYQQAASEHGLVVIAPDTSPRGCNIKGEDDSWDFGTGAGFYVNATEDPWKANYRMYSYVTEELPQLINANFPVDPQRMSIFGHSMGGHGALICALKNPGKYRSVSAFAPICNPVLCSWGKKAFSGYLGPDESKWKAYDATCLVKAYSGSQIDILIDQGKDDEFLSNGQLLPDNFIAACTEKKIPVVFRLQEGYDHSYYFIATFIADHIRHHAKYLNA
Turning to B1, the binding entry in test [1], in test [2] and in test [3] was “binds” in each case.

B2: Jph1 (junctophilin 1) (protein, UniProt Q9ET80 1-660)
chain: MTGGRFDFDDGGTYCGGWEEGKAHGHGICTGPKGQGEYSGSWSHGFEVVGVYTWPSGNTYQGYWAQGKRHGLGVETKGKWMYRGEWSHGFKGRYGVRQSLCTPARYEGTWSNGLQDGYGVETYGDGGTYQGQWAGGMRHGYGVRQSVPYGMATVIRSPLRTSLASLRSEQSNGSVLHEAAAAAADSPAGTRGGFVLNFHADTELGKKKGGLFRRGSLLGSMKLRKSESKSSISSKRSSVRSDAAMSRISSSDANSTISFGDVDCDFCPVEDHVDATTTETYMGEWKNDKRNGFGISERSNGMKYEGEWANNKRHGYGCTVFPDGSKEEGKYKNNILVRGIRKQLIPIRNTKTREKVDRAIEGAQRAAAMARTKVEIANSRTAHARAKADAADQAALAARQECDIARAVARELSPDFYQPGPDYIKQRCQEGGDIKENPEEKVLEKPPSPKESPHFYRKGTTPPRSPESSPKQSHSPQPSSPEPSKKQNPSPGARLSQDKQSLAEEQVTAFVNKPSMSKAPAKELGASVSKYSGRHHVPNPSNGELHSQYHGYYVKLNTPQHPPEDREDDRGVSQSSSALVPRPSPNKWGPPKSVTKPVAKESKTEPKAKKSELAIPKNPASNDTCPSLEKEANSGPNSIMIVLVMLLNIGLAILFVHFLT
B2: the binding entry in test [2] and in test [4] was “binds” each time.

B3: Triadin (protein, UniProt E9Q9K5 1-693)
chain: MTEITAEGNASTTTTVIDNKNGCIPKSPGKVLKRSVTEDIVTTFSSPAAWLLVIALIITWSAVAIVMFDLVDYKNFSASSIAKIGSDPLKLVNDAVEETTDWIYGFFSLLSDIISSEGDEDDEDADEDIDKGEIEEPPLKRKEIHQEKAEKEEKPEKKIQTKASHREREKGKEKLKGEKPEKTATHKEKLEKKERPETKMMAKEDKKIKTKEKTEEKAKKEMKVGKQEKVKPTAAKAKETPKTPPKARKKDDKEMPAVHEQKDQYAFCRYMIDMFVHGDLKPGQSPVMPPPSLTPSKPALSTTALEEKEKEEKKKMEKKDTSDTKKKEKEVKKKSEETTIDGKGKEPGKPPETKQMTAKLTTQAAARKDEKKEESKKMRKPTEEQPKGKKQEKKEKHIEPAKTPKKEHPGPSEKLKKAKAEQAKEEIAAASTKKALHGKKEEKAKTVEQEVKKEKSGKSSSDLKDKEVKKEKSGKSSSDLKDKEPQLKNEEKSKPQVKKEAKLASSDKGQTRKQNITRPEQVIPHVKPEKAEHQEKGHPSIKKDKPKPSSKGAPEVPDSGKKKIEKSEKESKVPTREENLQVYNVTKAEKPGKIPKDSKEAPASKKDKEDSKEAPTSKKDKEDSKDVPHSKKDKEVTDDVSSPKKQTRPISFFQCVYLNGYNGYGFQFPVTPVQQPGENPGKTNSPGQKQQEQ
In the case of B3, the binding entry in test [4] and in test [5] was “binds” throughout.

B4: phospholamban (protein, UniProt P61014 1-52)
chain: MEKVQYLTRSAIRRASTIEMPQQARQNLQNLFINFCLILICLLLICIIVMLL
On to B4, for which the binding entry in test [6] was “binds”.

B5: Casq2 (calsequestrin 2) (protein, UniProt O09161 20-415)
chain: EEGLNFPTYDGKDRVVSLSEKNLKQMLKRYDLLCLYYHEPVSSDKVSQKQFQLKEIVLELVAQVLEHKNIGFVMVDSRKEAKLAKRLGFSEEGSLYVLKGDRTIEFDGEFAADVLVEFLLDLIEDPVEIVNNKLEVQAFERIEDQTKLLGFFKNEDSEYYKAFQEAAEHFQPYIKFFATFDKAVAKKLSLKMNEVGFYEPFMDEPNVIPNKPYTEEELVEFVKEHQRPTLRRLRPEDMFETWEDDLNGIHIVAFAEKSDPDGYEFLEILKQVARDNTDNPDLSILWIDPDDFPLLVAYWEKTFKIDLFKPQIGVVNVTDADSIWMEIPDDDDLPTAEELEDWIEDVLSGKINTEDDDNEDEDDDGDDNDDDDDDDDDNDNSDEDNEDSDDDDDDDE
For the molecule B5, the binding entry in test [5] is recorded as “binds”.

B6: Fsd2 (Fibronectin Type III and SPRY Domain Containing 2) (protein, UniProt Q8BZ52 1-716)
chain: T1 sequence
B6: the binding entry in test [2] and in test [3] was “binds” in each case.
